Measured values published in PMC9010760.
No constants are given. Whether binding was seen depends on the method and setting. Binding seen in cells or lysates may run through a third protein. Some results given as binding are weak or reduced against the parent protein; the word gives no strength.

Sequences of proteins named here, by UniProt entry; tags and fusion partners are left off. A change or cut given only in a name is not applied to a line headed by its entry. A line that says so, or that is headed by a name, gives the form on record, which may keep a tag or linker.
UniProt Q9HBA0: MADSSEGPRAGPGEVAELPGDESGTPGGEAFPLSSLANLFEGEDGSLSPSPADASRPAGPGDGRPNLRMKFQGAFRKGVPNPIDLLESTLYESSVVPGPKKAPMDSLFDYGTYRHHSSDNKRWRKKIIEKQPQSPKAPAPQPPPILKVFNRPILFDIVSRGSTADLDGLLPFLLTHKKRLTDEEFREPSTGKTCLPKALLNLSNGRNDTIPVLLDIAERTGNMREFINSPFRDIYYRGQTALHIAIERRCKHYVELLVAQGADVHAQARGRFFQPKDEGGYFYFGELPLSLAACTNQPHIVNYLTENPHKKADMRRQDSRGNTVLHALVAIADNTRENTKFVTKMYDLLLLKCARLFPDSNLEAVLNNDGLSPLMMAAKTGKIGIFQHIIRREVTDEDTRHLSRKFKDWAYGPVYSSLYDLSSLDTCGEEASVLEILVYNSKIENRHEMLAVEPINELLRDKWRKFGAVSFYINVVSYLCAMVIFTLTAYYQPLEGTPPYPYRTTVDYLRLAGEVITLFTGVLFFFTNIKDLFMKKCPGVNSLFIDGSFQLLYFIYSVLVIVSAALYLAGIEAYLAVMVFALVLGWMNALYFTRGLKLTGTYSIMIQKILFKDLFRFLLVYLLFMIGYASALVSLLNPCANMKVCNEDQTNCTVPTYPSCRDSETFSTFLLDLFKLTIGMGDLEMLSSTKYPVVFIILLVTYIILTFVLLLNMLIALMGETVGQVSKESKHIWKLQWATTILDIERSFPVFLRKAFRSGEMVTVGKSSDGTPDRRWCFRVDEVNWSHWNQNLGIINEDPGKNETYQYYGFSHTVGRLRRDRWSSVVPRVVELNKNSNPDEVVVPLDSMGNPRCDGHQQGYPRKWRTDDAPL
TRPV4 5K-IDR mutant (Lys 77, 101, 130, 136 and 147 to arginine) (Q9HBA0, form named): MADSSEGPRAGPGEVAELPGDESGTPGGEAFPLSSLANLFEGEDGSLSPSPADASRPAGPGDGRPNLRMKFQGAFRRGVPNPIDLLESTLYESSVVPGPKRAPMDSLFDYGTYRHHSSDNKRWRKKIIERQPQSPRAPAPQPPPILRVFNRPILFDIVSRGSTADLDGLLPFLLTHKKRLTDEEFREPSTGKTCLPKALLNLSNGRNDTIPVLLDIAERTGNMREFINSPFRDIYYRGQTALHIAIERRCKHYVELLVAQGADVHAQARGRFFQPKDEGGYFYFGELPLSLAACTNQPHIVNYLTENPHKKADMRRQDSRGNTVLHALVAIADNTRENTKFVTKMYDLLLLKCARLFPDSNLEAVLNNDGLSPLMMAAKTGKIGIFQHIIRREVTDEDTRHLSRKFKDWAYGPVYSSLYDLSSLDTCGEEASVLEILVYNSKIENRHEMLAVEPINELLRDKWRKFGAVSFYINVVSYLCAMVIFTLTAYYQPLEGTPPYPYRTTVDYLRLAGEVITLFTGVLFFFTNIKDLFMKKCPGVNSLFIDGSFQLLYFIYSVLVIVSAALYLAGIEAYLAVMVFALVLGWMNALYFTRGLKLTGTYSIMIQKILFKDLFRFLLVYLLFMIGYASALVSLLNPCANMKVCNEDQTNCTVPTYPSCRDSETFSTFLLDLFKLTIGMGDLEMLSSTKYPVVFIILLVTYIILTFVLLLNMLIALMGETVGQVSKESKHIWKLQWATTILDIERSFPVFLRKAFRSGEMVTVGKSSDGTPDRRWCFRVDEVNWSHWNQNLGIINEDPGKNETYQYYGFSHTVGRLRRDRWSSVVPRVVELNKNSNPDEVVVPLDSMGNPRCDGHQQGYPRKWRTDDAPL
N-terminally Myc-tagged ITCH (Q96J02-2, form named): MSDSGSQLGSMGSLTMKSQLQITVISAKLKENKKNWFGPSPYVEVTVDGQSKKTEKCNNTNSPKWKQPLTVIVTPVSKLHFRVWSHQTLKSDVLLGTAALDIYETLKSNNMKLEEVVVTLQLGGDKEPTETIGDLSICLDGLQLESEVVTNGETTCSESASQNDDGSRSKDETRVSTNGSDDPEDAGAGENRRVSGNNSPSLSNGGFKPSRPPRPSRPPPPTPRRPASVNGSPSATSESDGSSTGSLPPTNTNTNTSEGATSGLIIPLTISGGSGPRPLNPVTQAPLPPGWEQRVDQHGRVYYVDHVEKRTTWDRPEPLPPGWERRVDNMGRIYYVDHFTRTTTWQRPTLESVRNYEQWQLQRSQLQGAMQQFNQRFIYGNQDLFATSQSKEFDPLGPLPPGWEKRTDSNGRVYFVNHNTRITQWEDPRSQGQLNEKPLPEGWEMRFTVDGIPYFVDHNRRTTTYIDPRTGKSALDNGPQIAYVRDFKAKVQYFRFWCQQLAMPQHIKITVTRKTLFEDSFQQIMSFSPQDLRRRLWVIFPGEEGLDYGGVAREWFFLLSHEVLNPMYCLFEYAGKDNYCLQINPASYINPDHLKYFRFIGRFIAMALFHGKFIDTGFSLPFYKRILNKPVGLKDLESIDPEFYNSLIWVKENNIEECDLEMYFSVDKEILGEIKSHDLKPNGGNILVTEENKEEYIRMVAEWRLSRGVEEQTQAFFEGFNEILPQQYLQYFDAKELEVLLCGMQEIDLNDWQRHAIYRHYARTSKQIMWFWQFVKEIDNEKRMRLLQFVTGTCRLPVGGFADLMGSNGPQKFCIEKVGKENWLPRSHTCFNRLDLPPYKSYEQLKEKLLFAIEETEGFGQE
N-terminally Myc-tagged ITCH C830A (catalytically inactive) (Q96J02-2, form named): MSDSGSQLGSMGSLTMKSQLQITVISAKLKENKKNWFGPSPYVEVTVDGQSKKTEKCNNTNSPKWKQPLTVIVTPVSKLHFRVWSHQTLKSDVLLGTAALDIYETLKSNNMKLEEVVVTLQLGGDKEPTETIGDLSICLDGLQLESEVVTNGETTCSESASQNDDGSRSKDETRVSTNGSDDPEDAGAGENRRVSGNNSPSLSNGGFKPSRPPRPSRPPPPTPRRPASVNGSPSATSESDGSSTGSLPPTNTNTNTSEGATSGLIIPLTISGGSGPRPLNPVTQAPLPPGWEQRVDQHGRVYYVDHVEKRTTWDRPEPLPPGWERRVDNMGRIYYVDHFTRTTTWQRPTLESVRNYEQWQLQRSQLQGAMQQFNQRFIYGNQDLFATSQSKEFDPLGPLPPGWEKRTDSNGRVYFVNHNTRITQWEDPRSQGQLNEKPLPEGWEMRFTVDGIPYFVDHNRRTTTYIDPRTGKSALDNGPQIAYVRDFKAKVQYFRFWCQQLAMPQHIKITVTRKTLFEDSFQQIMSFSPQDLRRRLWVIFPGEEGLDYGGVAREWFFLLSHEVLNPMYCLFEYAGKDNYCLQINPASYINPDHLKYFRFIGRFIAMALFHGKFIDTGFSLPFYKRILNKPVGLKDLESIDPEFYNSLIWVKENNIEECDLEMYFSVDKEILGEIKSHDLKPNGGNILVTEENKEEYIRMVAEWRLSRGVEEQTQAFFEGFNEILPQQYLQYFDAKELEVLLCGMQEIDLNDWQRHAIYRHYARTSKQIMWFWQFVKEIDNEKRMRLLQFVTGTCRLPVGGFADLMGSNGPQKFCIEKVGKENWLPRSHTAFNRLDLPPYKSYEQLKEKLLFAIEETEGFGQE
UniProt P61586: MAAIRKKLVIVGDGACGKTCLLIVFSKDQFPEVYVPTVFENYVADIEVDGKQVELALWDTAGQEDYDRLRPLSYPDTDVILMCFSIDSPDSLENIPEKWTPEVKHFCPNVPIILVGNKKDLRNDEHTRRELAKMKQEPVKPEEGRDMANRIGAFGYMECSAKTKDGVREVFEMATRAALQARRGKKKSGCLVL

Legend:
[1] = molecular target: C-terminally FLAG-tagged TRPV4 (transient receptor potential vanilloid 4), WT (human) (UniProt Q9HBA0); assay: co-IP; HEK293T cells cotransfected with TRPV4 (WT or mutant) and Myc-tagged E3 ligase; lysed 24 h post-transfection in RIPA buffer with protease/phosphatase inhibitors and PR-619; supernatant incubated 1 h at 4 °C with Dynabeads Protein G preconjugated with anti-FLAG M2 antibody; washed with 0.2% Tween-20 in PBS; Western blot
[2] = molecular target: C-terminally FLAG-tagged TRPV4 (transient receptor potential vanilloid 4), WT (human) (UniProt Q9HBA0); assay: co-IP; co-IP of PACSIN1 or RhoA with WT and K>R mutant TRPV4 (Fig. S5, H-J); cells, antibody and conditions not stated for this experiment in the text shown
[3] = molecular target: TRPV4 5K-IDR mutant (Lys 77, 101, 130, 136 and 147 to arginine) (human) (UniProt Q9HBA0); assay: as above

binding [1] | binding [2] | binding [3] | Substance
binds | – | – | N-terminally Myc-tagged ITCH (from UniProt Q96J02-2 1-862) (enzyme)
binds | – | – | N-terminally Myc-tagged ITCH C830A (catalytically inactive) (from UniProt Q96J02-2 1-862) (enzyme)
– | binds | binds | RhoA-Myc (from UniProt P61586 1-193)
